Binding data for nine molecules are collected here from article PMC9618717.

By UniProt entry, the sequences of proteins in these tests, tags left out.
UniProt Q8LPJ4: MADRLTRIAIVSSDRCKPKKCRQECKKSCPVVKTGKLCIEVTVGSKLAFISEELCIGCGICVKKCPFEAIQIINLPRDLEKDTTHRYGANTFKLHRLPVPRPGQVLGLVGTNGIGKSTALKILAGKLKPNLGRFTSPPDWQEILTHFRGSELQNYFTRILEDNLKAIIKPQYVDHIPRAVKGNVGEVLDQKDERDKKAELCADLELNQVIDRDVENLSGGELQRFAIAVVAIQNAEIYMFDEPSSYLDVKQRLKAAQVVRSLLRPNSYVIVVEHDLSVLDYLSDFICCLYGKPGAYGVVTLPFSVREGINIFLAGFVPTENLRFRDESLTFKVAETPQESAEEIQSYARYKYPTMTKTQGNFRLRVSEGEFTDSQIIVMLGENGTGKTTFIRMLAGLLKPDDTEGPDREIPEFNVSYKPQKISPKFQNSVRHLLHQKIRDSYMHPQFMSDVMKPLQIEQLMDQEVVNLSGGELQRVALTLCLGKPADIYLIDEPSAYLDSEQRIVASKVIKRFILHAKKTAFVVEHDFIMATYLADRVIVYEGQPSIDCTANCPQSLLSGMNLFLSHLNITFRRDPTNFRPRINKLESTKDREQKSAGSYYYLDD
UniProt P34790: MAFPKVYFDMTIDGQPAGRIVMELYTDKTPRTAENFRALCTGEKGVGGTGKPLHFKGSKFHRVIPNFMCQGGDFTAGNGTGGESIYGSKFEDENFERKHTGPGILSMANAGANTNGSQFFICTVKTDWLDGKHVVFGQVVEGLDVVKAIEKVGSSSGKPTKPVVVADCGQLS
UniProt Q9FGI1: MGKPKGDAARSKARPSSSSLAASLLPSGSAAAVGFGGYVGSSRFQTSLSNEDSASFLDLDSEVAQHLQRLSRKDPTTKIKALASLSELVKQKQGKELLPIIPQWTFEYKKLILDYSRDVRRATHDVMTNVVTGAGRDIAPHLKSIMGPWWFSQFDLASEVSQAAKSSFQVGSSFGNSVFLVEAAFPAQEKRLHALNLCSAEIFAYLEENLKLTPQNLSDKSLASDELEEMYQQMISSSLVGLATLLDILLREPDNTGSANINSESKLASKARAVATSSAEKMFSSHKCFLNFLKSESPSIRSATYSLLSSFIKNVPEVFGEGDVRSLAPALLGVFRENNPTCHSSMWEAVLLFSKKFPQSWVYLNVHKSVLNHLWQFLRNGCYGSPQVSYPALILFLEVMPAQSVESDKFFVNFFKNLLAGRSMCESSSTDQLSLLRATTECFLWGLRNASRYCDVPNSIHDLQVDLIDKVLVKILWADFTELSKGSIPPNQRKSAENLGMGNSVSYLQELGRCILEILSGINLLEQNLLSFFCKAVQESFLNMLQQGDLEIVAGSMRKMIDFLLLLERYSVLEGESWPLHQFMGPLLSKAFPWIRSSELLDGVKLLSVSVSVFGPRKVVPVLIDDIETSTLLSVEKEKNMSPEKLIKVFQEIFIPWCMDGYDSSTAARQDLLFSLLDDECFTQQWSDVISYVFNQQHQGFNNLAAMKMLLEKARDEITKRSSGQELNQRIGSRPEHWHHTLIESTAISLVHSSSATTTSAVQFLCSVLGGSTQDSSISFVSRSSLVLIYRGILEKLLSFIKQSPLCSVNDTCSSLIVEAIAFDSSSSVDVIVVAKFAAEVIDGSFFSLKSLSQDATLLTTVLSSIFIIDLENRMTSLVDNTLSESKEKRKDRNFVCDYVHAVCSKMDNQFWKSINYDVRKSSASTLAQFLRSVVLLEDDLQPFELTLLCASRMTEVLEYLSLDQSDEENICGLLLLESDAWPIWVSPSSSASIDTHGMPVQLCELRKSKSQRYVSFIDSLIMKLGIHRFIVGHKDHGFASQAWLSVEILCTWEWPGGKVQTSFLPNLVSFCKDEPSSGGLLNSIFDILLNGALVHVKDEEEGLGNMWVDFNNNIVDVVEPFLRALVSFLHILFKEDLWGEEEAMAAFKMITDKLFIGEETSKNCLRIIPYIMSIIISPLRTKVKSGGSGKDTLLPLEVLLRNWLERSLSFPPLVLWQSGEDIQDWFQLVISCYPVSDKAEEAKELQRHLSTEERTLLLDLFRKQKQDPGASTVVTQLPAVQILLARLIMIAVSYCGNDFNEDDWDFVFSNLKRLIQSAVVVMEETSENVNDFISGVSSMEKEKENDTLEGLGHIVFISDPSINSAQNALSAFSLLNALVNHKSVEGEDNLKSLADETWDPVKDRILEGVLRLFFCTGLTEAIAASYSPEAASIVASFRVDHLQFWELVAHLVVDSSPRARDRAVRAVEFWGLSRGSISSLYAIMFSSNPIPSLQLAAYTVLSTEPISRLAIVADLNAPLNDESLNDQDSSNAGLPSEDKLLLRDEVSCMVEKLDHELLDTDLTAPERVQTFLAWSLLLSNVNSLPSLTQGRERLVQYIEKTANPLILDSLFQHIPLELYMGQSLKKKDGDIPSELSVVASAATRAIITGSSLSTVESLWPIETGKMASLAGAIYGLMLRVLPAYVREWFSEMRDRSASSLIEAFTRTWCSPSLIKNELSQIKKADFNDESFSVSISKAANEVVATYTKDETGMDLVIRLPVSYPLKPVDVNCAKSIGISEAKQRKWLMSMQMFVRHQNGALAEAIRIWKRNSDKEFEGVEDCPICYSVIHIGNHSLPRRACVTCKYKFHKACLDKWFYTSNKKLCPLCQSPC
UniProt F4I893: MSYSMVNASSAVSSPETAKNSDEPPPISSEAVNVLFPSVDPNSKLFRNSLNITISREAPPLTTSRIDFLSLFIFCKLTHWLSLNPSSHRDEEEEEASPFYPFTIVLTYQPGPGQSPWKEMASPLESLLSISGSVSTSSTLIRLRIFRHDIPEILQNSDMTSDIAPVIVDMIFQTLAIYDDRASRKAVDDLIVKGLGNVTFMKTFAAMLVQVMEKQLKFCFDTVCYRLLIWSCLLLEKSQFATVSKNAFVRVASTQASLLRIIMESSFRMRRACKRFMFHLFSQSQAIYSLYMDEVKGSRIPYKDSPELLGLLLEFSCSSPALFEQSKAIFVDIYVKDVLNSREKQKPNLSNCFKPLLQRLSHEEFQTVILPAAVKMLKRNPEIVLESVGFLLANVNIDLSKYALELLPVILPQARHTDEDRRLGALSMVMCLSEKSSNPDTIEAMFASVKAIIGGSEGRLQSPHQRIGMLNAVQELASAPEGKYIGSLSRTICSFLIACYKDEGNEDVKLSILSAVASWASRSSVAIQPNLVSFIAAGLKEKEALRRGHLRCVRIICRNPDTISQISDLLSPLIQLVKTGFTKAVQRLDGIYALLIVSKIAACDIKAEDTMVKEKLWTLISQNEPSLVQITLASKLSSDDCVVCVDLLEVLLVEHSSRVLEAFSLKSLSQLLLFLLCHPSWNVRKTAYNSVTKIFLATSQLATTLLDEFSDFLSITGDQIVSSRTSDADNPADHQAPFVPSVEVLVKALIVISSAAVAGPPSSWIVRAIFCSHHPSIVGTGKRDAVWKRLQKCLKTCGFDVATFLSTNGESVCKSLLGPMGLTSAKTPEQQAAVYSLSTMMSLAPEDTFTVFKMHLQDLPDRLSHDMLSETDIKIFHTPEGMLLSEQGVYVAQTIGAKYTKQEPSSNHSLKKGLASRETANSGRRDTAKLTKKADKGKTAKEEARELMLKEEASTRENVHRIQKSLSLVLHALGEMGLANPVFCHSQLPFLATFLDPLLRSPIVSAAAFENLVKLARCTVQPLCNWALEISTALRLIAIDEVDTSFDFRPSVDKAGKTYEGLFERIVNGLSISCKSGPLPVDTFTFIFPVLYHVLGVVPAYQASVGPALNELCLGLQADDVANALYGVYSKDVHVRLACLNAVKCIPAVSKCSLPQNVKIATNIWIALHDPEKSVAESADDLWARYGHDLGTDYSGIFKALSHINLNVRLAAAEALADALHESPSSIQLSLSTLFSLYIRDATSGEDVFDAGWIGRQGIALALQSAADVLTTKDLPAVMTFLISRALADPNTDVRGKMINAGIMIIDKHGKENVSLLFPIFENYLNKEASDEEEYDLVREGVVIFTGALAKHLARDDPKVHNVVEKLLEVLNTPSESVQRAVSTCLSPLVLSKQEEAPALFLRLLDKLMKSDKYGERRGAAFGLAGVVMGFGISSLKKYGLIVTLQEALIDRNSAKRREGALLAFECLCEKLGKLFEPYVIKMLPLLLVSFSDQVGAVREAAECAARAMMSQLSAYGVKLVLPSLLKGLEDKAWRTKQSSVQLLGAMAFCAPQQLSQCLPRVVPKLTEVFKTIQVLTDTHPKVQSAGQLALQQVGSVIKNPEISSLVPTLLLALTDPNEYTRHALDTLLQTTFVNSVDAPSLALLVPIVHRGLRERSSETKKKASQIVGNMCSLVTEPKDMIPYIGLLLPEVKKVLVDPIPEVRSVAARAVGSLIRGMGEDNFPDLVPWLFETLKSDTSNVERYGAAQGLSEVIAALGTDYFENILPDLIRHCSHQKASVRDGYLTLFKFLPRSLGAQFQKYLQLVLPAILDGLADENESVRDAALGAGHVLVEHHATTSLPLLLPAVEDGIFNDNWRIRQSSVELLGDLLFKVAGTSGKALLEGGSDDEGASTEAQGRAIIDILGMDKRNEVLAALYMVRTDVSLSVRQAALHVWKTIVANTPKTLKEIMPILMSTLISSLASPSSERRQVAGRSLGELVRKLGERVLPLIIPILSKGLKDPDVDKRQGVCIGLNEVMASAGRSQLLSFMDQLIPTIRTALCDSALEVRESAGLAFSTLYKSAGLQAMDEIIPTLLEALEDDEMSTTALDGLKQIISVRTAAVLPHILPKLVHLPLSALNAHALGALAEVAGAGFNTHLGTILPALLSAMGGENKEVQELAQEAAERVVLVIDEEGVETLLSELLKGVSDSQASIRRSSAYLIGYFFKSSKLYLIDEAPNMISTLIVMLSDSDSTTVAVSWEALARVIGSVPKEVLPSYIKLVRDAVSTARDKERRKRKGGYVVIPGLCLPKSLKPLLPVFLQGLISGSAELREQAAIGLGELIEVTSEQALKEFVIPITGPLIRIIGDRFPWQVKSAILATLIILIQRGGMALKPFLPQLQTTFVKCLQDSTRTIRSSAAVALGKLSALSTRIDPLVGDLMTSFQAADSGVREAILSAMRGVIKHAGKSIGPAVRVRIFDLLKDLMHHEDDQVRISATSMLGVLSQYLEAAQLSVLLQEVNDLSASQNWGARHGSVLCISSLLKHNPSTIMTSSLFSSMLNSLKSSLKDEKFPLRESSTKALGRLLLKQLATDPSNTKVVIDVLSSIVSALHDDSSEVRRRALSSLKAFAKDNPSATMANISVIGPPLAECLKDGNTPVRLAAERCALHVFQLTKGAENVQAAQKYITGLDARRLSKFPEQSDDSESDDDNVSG

Results are given in words; binding and its absence hold for the method and conditions named. In cells and extracts the contact can be indirect. These calls come from enrichment with a bait or labelling near it, and not all partners need be listed.

To fix the notation:
B1: eIF3a (subunit of the eIF3 complex) (protein, UniProt Q9LD55 1-987)
chain: MANFAKPENALKRADELINVGQKQDALQALHDLITSKRYRAWQKPLEKIMFKYLDLCVDLKRGRFAKDGLIQYRIVCQQVNVSSLEEVIKHFLHLATDKAEQARSQADALEEALDVDDLEADRKPEDLQLSIVSGEKGKDRSDRELVTPWFKFLWETYRTVLEILRNNSKLEALYAMTAHKAFQFCKQYKRTTEFRRLCEIIRNHLANLNKYRDQRDRPDLSAPESLQLYLDTRFDQLKVATELGLWQEAFRSVEDIYGLMCMVKKTPKSSLLMVYYSKLTEIFWISSSHLYHAYAWFKLFSLQKNFNKNLSQKDLQLIASSVVLAALSIPPFDRAQSASHMELENEKERNLRMANLIGFNLEPKFEGKDMLSRSALLSELVSKGVLSCASQEVKDLFHVLEHEFHPLDLGSKIQPLLEKISKSGGKLSSAPSLPEVQLSQYVPSLEKLATLRLLQQVSKIYQTIRIESLSQLVPFFQFSEVEKISVDAVKNNFVAMKVDHMKGVVIFGNLGIESDGLRDHLAVFAESLSKVRAMLYPVPSKASKLAGVIPNLADTVEKEHKRLLARKSIIEKRKEDQERQQLEMEREEEQKRLKLQKLTEEAEQKRLAAELAERRKQRILREIEEKELEEAQALLEETEKRMKKGKKKPLLDGEKVTKQSVKERALTEQLKERQEMEKKLQKLAKTMDYLERAKREEAAPLIEAAYQRRLVEEREFYEREQQREVELSKERHESDLKEKNRLSRMLGNKEIFQAQVISRRQAEFDRIRTEREERISKIIREKKQERDIKRKQIYYLKIEEERIRKLQEEEEARKQEEAERLKKVEAERKANLDKAFEKQRQREIELEEKSRREREELLRGTNAPPARLAEPTVTPVGTTAPAAAAAAAGAPAAPYVPKWKRQTTEVSGPSAPTSSETDRRSNRGPPPGDDHWGSNRGAAQNTDRWTSNRERSGPPAEGGDRWGSGPRGSDDRRSTFGSSRPRPTQR
B2: EVOLUTIONARILY CONSERVED C-TERMINAL REGION 2 (protein, UniProt Q9LJE5 1-667)
chain: MATVAPPADQATDLLQKLSLDSPAKASEIPEPNKKTAVYQYGGVDVHGQVPSYDRSLTPMLPSDAADPSVCYVPNPYNPYQYYNVYGSGQEWTDYPAYTNPEGVDMNSGIYGENGTVVYPQGYGYAAYPYSPATSPAPQLGGEGQLYGAQQYQYPNYFPNSGPYASSVATPTQPDLSANKPAGVKTLPADSNNVASAAGITKGSNGSAPVKPTNQATLNTSSNLYGMGAPGGGLAAGYQDPRYAYEGYYAPVPWHDGSKYSDVQRPVSGSGVASSYSKSSTVPSSRNQNYRSNSHYTSVHQPSSVTGYGTAQGYYNRMYQNKLYGQYGSTGRSALGYGSSGYDSRTNGRGWAATDNKYRSWGRGNSYYYGNENNVDGLNELNRGPRAKGTKNQKGNLDDSLEVKEQTGESNVTEVGEADNTCVVPDREQYNKEDFPVDYANAMFFIIKSYSEDDVHKSIKYNVWASTPNGNKKLAAAYQEAQQKAGGCPIFLFFSVNASGQFVGLAEMTGPVDFNTNVEYWQQDKWTGSFPLKWHIVKDVPNSLLKHITLENNENKPVTNSRDTQEVKLEQGLKIVKIFKEHSSKTCILDDFSFYEVRQKTILEKKAKQTQKQVSEEKVTDEKKESATAESASKESPAAVQTSSDVKVAENGSVAKPVTGDVVANGC
B3: eIF3k (subunit of the eIF3 complex) (protein, UniProt Q9SZA3 1-226)
chain: MGVEIQSPQEQSSYTVEQLVALNPFNPEILPDLENYVNVTSQTYSLEVNLCLLRLYQFEPERMNTHIVARILVKALMAMPTPDFSLCLFLIPERVQMEEQFKSLIVLSHYLETGRFQQFWDEAAKNRHILEAVPGFEQAIQAYASHLLSLSYQKVPRSVLAEAVNMDGASLDKFIEQQVTNSGWIVEKEGGSIVLPQNEFNHPELKKNTGENVPLEHIARIFPILG
B4: eIF3e (subunit of the eIF3 complex) (protein, UniProt Q9C5Z3 1-441)
chain: MEESKQNYDLTPLIAPNLDRHLVFPIFEFLQERQLYPDEQILKSKIQLLNQTNMVDYAMDIHKSLYHTEDAPQEMVERRTEVVARLKSLEEAAAPLVSFLLNPNAVQELRADKQYNLQMLKERYQIGPDQIEALYQYAKFQFECGNYSGAADYLYQYRTLCSNLERSLSALWGKLASEILMQNWDIALEELNRLKEIIDSKSFSSPLNQVQNRIWLMHWGLYIFFNHDNGRTQIIDLFNQDKYLNAIQTSAPHLLRYLATAFIVNKRRRPQLKEFIKVIQQEHYSYKDPIIEFLACVFVNYDFDGAQKKMKECEEVIVNDPFLGKRVEDGNFSTVPLRDEFLENARLFVFETYCKIHQRIDMGVLAEKLNLNYEEAERWIVNLIRTSKLDAKIDSESGTVIMEPTQPNVHEQLINHTKGLSGRTYKLVNQLLEHTQAQATR
B5: At2g20830 protein (folic acid binding/transferase, similar to human and S. cerevisiae Lto1) (protein, UniProt Q9SKT4 1-297)
chain: MLREMLGCCKVYISEARNKTALEAIERALKPFPPAAIVNKFEDAAYGRVGYTVVSSLANGSSSSLKNAVFAMVKTALDTINLELHCGSHPRLGVVDHICFHPLSQTSIEQVSSVANSLAMDIGSILRVPTYLYGAAEKEQCTLDSIRRKLGYFKANREGHEWAGGFDLEMVPLKPDAGPQEVSKAKGVVAVGACGWVSNYNVPVMSNDLKAVRRIARKTSERGGGLASVQTMALVHGEGVIEVACNLLNPSQVGGDEVQGLIERLGREEGLLVGKGYYTDYTPDQIVERYMDLLNNS

In one assay the target is ABCE2:YFP fusion protein (Arabidopsis ATP-Binding Cassette E protein ABCE2 fused to YFP) (Arabidopsis thaliana) (UniProt Q8LPJ4). The assay is described as follows: affinity purification with mass spectrometry; co-immunoprecipitation of ABCE2:YFP with the µMACS GFP Isolation Kit from extracts of whole api7-1 35Spro:ABCE2:YFP seedlings (10 das) crosslinked with 1% formaldehyde; lysis buffer 50 mM Tris-HCl pH 7.5, 0.1% IGEPAL CA-630, 2 mM PMSF, 150 mM NaCl; three biological replicates; LC-ESI-MS/MS; hits filtered by predicted cytoplasmic localisation and against a subtract list from three unrelated GFP co-immunoprecipitations.
On to “ROTAMASE CYP 1 (from UniProt P34790 1-172)”, for which the binding result is listed as “binds”. As to “protein encoded by At5g58410, annotated as E3 ubiquitin-protein ligase listerin (from UniProt Q9FGI1 1-1873)”, the binding result was “binds”. Regarding RPL3B (from UniProt P22738 1-390), the binding result is given as “binds”. ILITYHIA (from UniProt F4I893 1-2696): the binding entry is reported as “binds”.

The target is the same in the next assay. The description is as above. This is another data set of the same source.
For B1, the binding entry is recorded as “binds”. Same read-out and setting: next, B2: “binds”.

Turning to B3, the binding entry is reported as “binds”. For the molecule B4, the binding result was “binds”. As for B5, the binding result is reported as “binds”.
